In publication PMC11166204, “Mapping the global interactome of the ARF family reveals spatial organization in cellular signaling pathways” (Journal of Cell Science, 2024):
Where a chain is given by its changes, count along the chain named. These are yes or no findings as the source states them, for the method shown. In cells and extracts the contact can be indirect. Here binding means that the protein was enriched with, or labelled near, the bait; the list need not be complete. For some assays here: No binding means not detected with the bait. For some assays here: Tags and fused reporters may be left off the sequences shown.

The chains behind the UniProt entries cited, without tags or fusion partners. Where a name states a change or a piece, a line headed by the entry shows the natural chain unless it says otherwise.
UniProt Q9NVJ2: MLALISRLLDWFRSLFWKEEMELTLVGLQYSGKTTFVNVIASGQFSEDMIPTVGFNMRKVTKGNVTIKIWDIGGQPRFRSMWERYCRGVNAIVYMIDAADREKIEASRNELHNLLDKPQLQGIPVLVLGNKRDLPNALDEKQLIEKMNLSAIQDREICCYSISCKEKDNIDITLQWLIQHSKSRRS
UniProt Q5H913: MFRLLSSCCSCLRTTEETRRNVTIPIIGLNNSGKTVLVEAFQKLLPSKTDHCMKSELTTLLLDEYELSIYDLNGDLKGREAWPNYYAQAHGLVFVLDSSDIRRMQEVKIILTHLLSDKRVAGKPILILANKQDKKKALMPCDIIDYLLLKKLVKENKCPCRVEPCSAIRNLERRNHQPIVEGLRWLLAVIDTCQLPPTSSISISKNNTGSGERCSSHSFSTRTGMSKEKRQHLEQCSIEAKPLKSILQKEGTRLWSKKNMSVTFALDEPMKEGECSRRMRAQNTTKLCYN
UniProt P84077: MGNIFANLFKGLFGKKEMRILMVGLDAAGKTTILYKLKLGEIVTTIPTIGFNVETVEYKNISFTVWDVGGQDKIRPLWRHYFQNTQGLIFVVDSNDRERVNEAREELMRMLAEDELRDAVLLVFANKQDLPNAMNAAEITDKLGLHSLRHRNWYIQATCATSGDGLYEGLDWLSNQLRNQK
UniProt Q8TB45: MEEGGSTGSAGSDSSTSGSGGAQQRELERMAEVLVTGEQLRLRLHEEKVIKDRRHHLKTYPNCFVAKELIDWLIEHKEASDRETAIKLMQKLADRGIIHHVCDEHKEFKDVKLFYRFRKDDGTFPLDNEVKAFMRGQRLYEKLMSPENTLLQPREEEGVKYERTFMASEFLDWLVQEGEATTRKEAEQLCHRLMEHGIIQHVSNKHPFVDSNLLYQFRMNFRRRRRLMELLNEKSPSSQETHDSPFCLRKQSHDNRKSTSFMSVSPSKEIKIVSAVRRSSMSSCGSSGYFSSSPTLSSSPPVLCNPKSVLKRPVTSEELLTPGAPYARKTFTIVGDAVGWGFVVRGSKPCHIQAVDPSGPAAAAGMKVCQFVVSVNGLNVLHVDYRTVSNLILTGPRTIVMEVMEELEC
UniProt Q7Z3U7: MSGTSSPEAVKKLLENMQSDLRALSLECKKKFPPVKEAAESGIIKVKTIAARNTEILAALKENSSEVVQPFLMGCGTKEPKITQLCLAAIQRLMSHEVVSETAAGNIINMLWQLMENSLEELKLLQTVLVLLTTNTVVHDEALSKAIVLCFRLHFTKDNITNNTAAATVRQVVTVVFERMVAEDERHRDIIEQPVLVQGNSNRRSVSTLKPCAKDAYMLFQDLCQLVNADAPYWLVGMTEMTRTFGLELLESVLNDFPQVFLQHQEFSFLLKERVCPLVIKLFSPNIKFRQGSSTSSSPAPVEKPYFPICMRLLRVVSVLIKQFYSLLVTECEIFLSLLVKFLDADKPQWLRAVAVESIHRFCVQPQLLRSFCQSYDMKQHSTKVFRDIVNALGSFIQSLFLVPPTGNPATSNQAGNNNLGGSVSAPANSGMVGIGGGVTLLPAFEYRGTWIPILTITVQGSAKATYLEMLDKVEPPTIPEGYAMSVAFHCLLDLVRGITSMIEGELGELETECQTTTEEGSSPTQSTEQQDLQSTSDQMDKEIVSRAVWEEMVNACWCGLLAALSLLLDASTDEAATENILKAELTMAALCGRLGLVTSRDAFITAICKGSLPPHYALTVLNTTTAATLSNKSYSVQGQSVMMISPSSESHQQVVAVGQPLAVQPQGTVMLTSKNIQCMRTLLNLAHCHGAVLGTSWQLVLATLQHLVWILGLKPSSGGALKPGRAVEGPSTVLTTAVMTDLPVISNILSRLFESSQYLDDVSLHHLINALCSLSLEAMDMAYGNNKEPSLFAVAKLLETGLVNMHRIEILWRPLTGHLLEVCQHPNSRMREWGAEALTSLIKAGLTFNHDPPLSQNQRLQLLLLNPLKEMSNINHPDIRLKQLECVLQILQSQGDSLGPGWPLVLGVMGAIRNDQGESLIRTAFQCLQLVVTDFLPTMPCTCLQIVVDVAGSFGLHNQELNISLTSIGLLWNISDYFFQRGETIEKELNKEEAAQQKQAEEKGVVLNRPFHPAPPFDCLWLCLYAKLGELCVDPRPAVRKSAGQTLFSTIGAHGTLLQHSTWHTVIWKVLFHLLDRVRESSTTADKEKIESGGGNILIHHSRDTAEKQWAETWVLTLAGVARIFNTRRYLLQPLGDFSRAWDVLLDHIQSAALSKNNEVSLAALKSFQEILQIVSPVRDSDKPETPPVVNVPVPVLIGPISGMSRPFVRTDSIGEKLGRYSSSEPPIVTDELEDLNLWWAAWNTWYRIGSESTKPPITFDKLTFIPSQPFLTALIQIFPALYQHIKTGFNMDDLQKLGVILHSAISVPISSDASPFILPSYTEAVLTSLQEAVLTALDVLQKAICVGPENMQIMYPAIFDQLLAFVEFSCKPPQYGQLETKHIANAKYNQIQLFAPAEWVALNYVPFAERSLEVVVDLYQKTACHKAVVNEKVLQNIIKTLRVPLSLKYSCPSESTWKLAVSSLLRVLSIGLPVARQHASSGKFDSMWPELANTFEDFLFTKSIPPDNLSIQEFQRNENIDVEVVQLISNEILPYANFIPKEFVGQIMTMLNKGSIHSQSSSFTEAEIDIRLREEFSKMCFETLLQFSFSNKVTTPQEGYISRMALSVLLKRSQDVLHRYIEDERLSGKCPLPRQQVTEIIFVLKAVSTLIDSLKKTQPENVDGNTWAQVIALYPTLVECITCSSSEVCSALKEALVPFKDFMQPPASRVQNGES

Legend:
WT ARL10–GFP (human) = molecular target: T1, WT ARL10–GFP (human) (UniProt Q8N8L6); assay: affinity purification with mass spectrometry; ARL10–GFP (WT or active mutant) from Flp-In HeLa cells lysed in 0.5% digitonin buffer, GFP-selector resin 2 h at 4°C, on-bead digestion, MS
T1 sequence: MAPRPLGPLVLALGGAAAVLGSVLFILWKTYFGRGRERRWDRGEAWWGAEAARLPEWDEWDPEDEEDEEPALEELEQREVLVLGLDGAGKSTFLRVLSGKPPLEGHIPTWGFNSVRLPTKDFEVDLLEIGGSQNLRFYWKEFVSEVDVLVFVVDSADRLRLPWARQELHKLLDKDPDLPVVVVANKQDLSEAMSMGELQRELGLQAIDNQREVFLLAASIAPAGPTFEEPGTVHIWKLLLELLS

[1] = molecular target: T2, constitutively active ARL10 (S132L)–BirA*–Flag (human) (UniProt Q8N8L6); assay: proximity labelling; BioID: constitutively active ARF/ARL bait with C-terminal BirA*–Flag, tetracycline-induced in Flp-In T-REx HEK293 and Flp-In T-REx HeLa cells, 50 µM biotin, 24 h labelling; RIPA lysis, streptavidin beads, on-bead trypsin, MS; SAINT AvgP ≥0.95 with AvgSpec and CAAX-ratio filters
T2 sequence: T1 sequence with S132L

[2] = molecular target: T3, constitutively active ARL4D (Q80L)–BirA*–Flag (human) (UniProt P49703); assay: as above
T3 sequence: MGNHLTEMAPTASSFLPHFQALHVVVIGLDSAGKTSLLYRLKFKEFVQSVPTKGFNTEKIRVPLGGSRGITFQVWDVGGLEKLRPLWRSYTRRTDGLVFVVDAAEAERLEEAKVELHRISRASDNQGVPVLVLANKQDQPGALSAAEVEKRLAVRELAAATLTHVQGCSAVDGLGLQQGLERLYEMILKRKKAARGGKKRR

[3] = molecular target: constitutively active ARL8B–BirA*–Flag (human) (UniProt Q9NVJ2); assay: as above
[4] = molecular target: constitutively active ARL13A–BirA*–Flag (human) (UniProt Q5H913); assay: as above
[5] = molecular target: constitutively active ARF1 (Q71L)–BirA*–Flag (human) (UniProt P84077); assay: as above
[6] = molecular target: T4, constitutively active ARL14 (Q68L)–BirA*–Flag (human) (UniProt Q8N4G2); assay: as above
T4 sequence: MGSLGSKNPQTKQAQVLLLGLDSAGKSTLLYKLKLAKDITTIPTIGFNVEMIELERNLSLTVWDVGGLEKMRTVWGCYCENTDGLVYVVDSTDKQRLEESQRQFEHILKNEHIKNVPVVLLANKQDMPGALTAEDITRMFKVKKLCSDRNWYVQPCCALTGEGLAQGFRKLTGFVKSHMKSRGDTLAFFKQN

## DEPTOR (from UniProt Q8TB45 1-409)
WT ARL10–GFP (human)
  binding: no binding

## MON2 (from UniProt Q7Z3U7 1-1717)
[1]
  binding: binds

B1: POP1 (protein, UniProt Q99575 1-1024)
chain: MSNAKERKHAKKMRNQPTNVTLSSGFVADRGVKHHSGGEKPFQAQKQEPHPGTSRQRQTRVNPHSLPDPEVNEQSSSKGMFRKKGGWKAGPEGTSQEIPKYITASTFAQARAAEISAMLKAVTQKSSNSLVFQTLPRHMRRRAMSHNVKRLPRRLQEIAQKEAEKAVHQKKEHSKNKCHKARRCHMNRTLEFNRRQKKNIWLETHIWHAKRFHMVKKWGYCLGERPTVKSHRACYRAMTNRCLLQDLSYYCCLELKGKEEEILKALSGMCNIDTGLTFAAVHCLSGKRQGSLVLYRVNKYPREMLGPVTFIWKSQRTPGDPSESRQLWIWLHPTLKQDILEEIKAACQCVEPIKSAVCIADPLPTPSQEKSQTELPDEKIGKKRKRKDDGENAKPIKKIIGDGTRDPCLPYSWISPTTGIIISDLTMEMNRFRLIGPLSHSILTEAIKAASVHTVGEDTEETPHRWWIETCKKPDSVSLHCRQEAIFELLGGITSPAEIPAGTILGLTVGDPRINLPQKKSKALPNPEKCQDNEKVRQLLLEGVPVECTHSFIWNQDICKSVTENKISDQDLNRMRSELLVPGSQLILGPHESKIPILLIQQPGKVTGEDRLGWGSGWDVLLPKGWGMAFWIPFIYRGVRVGGLKESAVHSQYKRSPNVPGDFPDCPAGMLFAEEQAKNLLEKYKRRPPAKRPNYVKLGTLAPFCCPWEQLTQDWESRVQAYEEPSVASSPNGKESDLRRSEVPCAPMPKKTHQPSDEVGTSIEHPREAEEVMDAGCQESAGPERITDQEASENHVAATGSHLCVLRSRKLLKQLSAWCGPSSEDSRGGRRAPGRGQQGLTREACLSILGHFPRALVWVSLSLLSKGSPEPHTMICVPAKEDFLQLHEDWHYCGPQESKHSDPFRSKILKQKEKKKREKRQKPGRASSDGPAGEEPVAGQEALTLGLWSGPLPRVTLHCSRTLLGFVTQGDFSMAVGCGEALGFVSLTGLLDMLSSQPAAQRGLVLLRPPASLQYRFARIAIEV
[2]
  binding: binds

B2: AGFG1 (protein, UniProt P52594 1-562)
chain: MAASAKRKQEEKHLKMLRDMTGLPHNRKCFDCDQRGPTYVNMTVGSFVCTSCSGSLRGLNPPHRVKSISMTTFTQQEIEFLQKHGNEVCKQIWLGLFDDRSSAIPDFRDPQKVKEFLQEKYEKKRWYVPPEQAKVVASVHASISGSSASSTSSTPEVKPLKSLLGDSAPTLHLNKGTPSQSPVVGRSQGQQQEKKQFDLLSDLGSDIFAAPAPQSTATANFANFAHFNSHAAQNSANADFANFDAFGQSSGSSNFGGFPTASHSPFQPQTTGGSAASVNANFAHFDNFPKSSSADFGTFNTSQSHQTASAVSKVSTNKAGLQTADKYAALANLDNIFSAGQGGDQGSGFGTTGKAPVGSVVSVPSQSSASSDKYAALAELDSVFSSAATSSNAYTSTSNASSNVFGTVPVVASAQTQPASSSVPAPFGATPSTNPFVAAAGPSVASSTNPFQTNARGATAATFGTASMSMPTGFGTPAPYSLPTSFSGSFQQPAFPAQAAFPQQTAFSQQPNGAGFAAFGQTKPVVTPFGQVAAAGVSSNPFMTGAPTGQFPTGSSSTNPFL
[3]
  binding: binds
[4]
  binding: binds
[5]
  binding: binds

B3: phospholipase D1 (PLD1), endogenous (enzyme, UniProt Q13393 1-1074)
chain: MSLKNEPRVNTSALQKIAADMSNIIENLDTRELHFEGEEVDYDVSPSDPKIQEVYIPFSAIYNTQGFKEPNIQTYLSGCPIKAQVLEVERFTSTTRVPSINLYTIELTHGEFKWQVKRKFKHFQEFHRELLKYKAFIRIPIPTRRHTFRRQNVREEPREMPSLPRSSENMIREEQFLGRRKQLEDYLTKILKMPMYRNYHATTEFLDISQLSFIHDLGPKGIEGMIMKRSGGHRIPGLNCCGQGRACYRWSKRWLIVKDSFLLYMKPDSGAIAFVLLVDKEFKIKVGKKETETKYGIRIDNLSRTLILKCNSYRHARWWGGAIEEFIQKHGTNFLKDHRFGSYAAIQENALAKWYVNAKGYFEDVANAMEEANEEIFITDWWLSPEIFLKRPVVEGNRWRLDCILKRKAQQGVRIFIMLYKEVELALGINSEYTKRTLMRLHPNIKVMRHPDHVSSTVYLWAHHEKLVIIDQSVAFVGGIDLAYGRWDDNEHRLTDVGSVKRVTSGPSLGSLPPAAMESMESLRLKDKNEPVQNLPIQKSIDDVDSKLKGIGKPRKFSKFSLYKQLHRHHLHDADSISSIDSTSSYFNHYRSHHNLIHGLKPHFKLFHPSSESEQGLTRPHADTGSIRSLQTGVGELHGETRFWHGKDYCNFVFKDWVQLDKPFADFIDRYSTPRMPWHDIASAVHGKAARDVARHFIQRWNFTKIMKSKYRSLSYPFLLPKSQTTAHELRYQVPGSVHANVQLLRSAADWSAGIKYHEESIHAAYVHVIENSRHYIYIENQFFISCADDKVVFNKIGDAIAQRILKAHRENQKYRVYVVIPLLPGFEGDISTGGGNALQAIMHFNYRTMCRGENSILGQLKAELGNQWINYISFCGLRTHAELEGNLVTELIYVHSKLLIADDNTVIIGSANINDRSMLGKRDSEMAVIVQDTETVPSVMDGKEYQAGRFARGLRLQCFRVVLGYLDDPSEDIQDPVSDKFFKEVWVSTAARNATIYDKVFRCLPNDEVHNLIQLRDFINKPVLAKEDPIRAEEELKKIRGFLVQFPFYFLSEESLLPSVGTKEAIVPMEVWT
[6]
  binding: binds
[5]
  binding: binds
